Construct, isoform or probe ends are uncertain for at least one entry. No signal at the amounts used counts as a negative.
System: GST-Hap2 core (PoHap2) + GST-Hap3 (PoHap3) + GST-Hap5 (PoHap5)
Assay: EMSA
Details: 13 pmol each protein in 20 ul, 20 ul: binding buffer of Papagiannopoulos et al. 1996 (composition and pH not given), 1 ug poly(dI-dC), 100 nmol DTT, 500 or 250 pmol random ds oligo, 2.5 pmol probe, recombinant protein, protein details: N-terminal GST (pGEX-6P-1),GST,GST, label: Cy5 (on selex_fm2)

Sequence | binding result (no shift) | binding result (also 2 pmol each, two shifted bands, poly(dI-dC) and random ds oligo present)
GTGAAGCGCCGGCATCAGCGCCTGTAGCGTGTTCGGCAACTT (double strand) [probe 2 (mutated CCAAT, TNS13)] | no binding | –
GTGATTGGCCGGCATCAGCGCCTGTAGCGTGTTCGGCAACTT (double strand) [probe 1 (vp2 CCAAT, TNS12)] | – | binds

Reference: paper PMC11561020
